# According to PubChem BioAssay AID504834 (National Center for Advancing Translational Sciences (NCATS), 2011):
# “And” between values parts separate entries of the source, which are not always exact repeats. Equal values may be shown once. Screen size: about 320,000 compounds; about 22,000 (6.9%) were called active. Inconclusive means that the source gave no clear call. Such entries were picked first, then a sample of the others. Calls come from the whole dose curve; as a rule, active = well fitted inhibition curve with a large enough effect; inconclusive = small, poorly fitted or top-dose-only effect, or another doubt; inactive = no such curve, though single readings can be large or run the other way. Potencies beside an inconclusive call are fits to weak or partial responses and may not hold up.
# Test: Primary qHTS for delayed death inhibitors of the malarial parasite plastid, 96 hour incubation
# Settings: P. falciparum luciferase reporter growth; series mostly up to 28.7 µM; activity change, negative = inhibition: at the top concentration
# How it was run: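 Plates of compound plus infected erythrocytes (2% hematocrit, 0.05% parasitemia final) incubate 96 hours, 37 C, 5% CO2. Detection reagent added; reduced luminescence from the parasites' luciferase reporter flags inhibition.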
# % is set by controls: 0 for no effect and ±100 for the full control effect; potency is the fitted concentration of half-maximal effect.
SMILES,"activity change, negative = inhibition",Potency
CNC(=O)c1c(NC(=O)c2nc3ccccc3s2)sc2c1CCC2,inactive: 8.01%,–
O=C(CNc1cc(S(=O)(=O)N2CCCC2)ccc1OCC(F)(F)F)Nc1ccc(SC(F)F)cc1,–,"inconclusive: 11.7 µM [inhibitor, partial curve, poor fit]"
CNCCCN1c2ccccc2CCc2ccccc21,–,"inconclusive: 6.42 µM [inhibitor, single point] and inconclusive: 18.5 µM [inhibitor, single point]"
COc1ccc(CCNC(=O)CNS(=O)(=O)c2ccc(N(C)C)c([N+](=O)[O-])c2)cc1OC,–,"inconclusive: 6.57 µM [inhibitor, partial curve]"
Cc1ccnc(NC(=O)CCN2C(=O)c3ccccc3S2(=O)=O)n1,inactive: 76.4%,–
Cc1cc(NC(=S)NC(=O)/C=C/c2ccc(S(=O)(=O)N3CCOCC3)cc2)ccc1Br,–,"inconclusive: 6.57 µM [inhibitor, partial curve, poor fit]"
Cc1ccc(Nc2nc(=O)c3cccnc3s2)cc1,inactive: 6.85%,–
C=CCn1c(=O)c2ccccc2n2c(SCc3nnc(-c4ccccc4Br)o3)nnc12,–,"inconclusive: 16.5 µM [inhibitor, single point]"
Cc1noc(NS(=O)(=O)c2ccc(NC(=O)c3cc(F)c(F)c(F)c3F)cc2)c1C,inactive: 5.67%,–
CS(=O)(=O)c1ccc(C(=O)Nc2cc(S(C)(=O)=O)ccc2Cl)cc1,inactive: 6.51%,–
CCOc1ccc(S(=O)(=O)N(C)c2ccc(OCC(=O)OCc3c(C)noc3C)cc2)cc1,–,"inconclusive: 9.28 µM [inhibitor, partial curve]"
C=CCn1c(SCC(=O)NC(=O)NCCC)nnc1C1CCCCC1,–,"inconclusive: 0.0329 µM [inhibitor, full curve, poor fit]"
Cc1c(O)ccc(/C(Cc2ccc3ccccc3n2)=N\N)c1O,–,"inconclusive: 18.5 µM [inhibitor, single point]"
Cc1ccc(CN2C(=O)N/C(=C/c3cc(C)n(-c4ccccn4)c3C)C2=O)cc1,–,"inconclusive: 10.4 µM [inhibitor, single point]"
COc1ccccc1NC(=O)c1ccc2c(c1)N(CC(=O)NC(C)C)C(=O)C(C)(C)O2,inactive: -23.7%,–
COc1ccc(CC(=O)N/N=C(\C)c2cccs2)cc1,inactive: -16.9%,–
O=[N+]([O-])c1ccc(-[n+]2nc(-c3ccccc3)nn2-c2ccccc2)cc1,inactive: 16.6%,–
NC(=O)C1(N2CCCCC2)CCN(S(=O)(=O)c2ccc(Cl)s2)CC1,–,"inconclusive: 18.5 µM [inhibitor, single point]"
CC12CCC(C(=O)n3c1nc1ccccc13)C2(C)C (centres undefined),–,"inconclusive: 18.5 µM [inhibitor, single point]"
CCOCCCN(C)C1CCN(C(=O)c2oc3ccccc3c2NC(=O)c2ccc([N+](=O)[O-])cc2)CC1,–,"inconclusive: 10.4 µM [inhibitor, single point]"
CC(=O)Nc1cccc2c1Cc1ccccc1-2,inactive: 31.7%,–
O=c1c2ccccc2nc(/C=C/c2ccc(O)cc2)n1-c1ccccc1O,–,"inconclusive: 0.657 µM [inhibitor, full curve]"
O=C(c1ccccc1)c1nn(-c2ccccc2)c(=O)cc1C(F)(F)F,inactive: 0%,–
C/C(=N\NC(=O)COc1ccc(C(C)(C)C)cc1)c1ccc(N2CCOCC2)cc1,–,"inconclusive: 13.1 µM [inhibitor, single point]"
CCC(CO)Nc1ncnc2onc(-c3ccc(F)cc3)c12 (centres undefined),inactive: -22.6%,–

# 3 entries already listed, ordered by heavy-atom count, largest number first.
SMILES,"activity change, negative = inhibition",Potency
CCOc1ccc(S(=O)(=O)N(C)c2ccc(OCC(=O)OCc3c(C)noc3C)cc2)cc1,–,"inconclusive: 9.28 µM [inhibitor, partial curve]"
C=CCn1c(=O)c2ccccc2n2c(SCc3nnc(-c4ccccc4Br)o3)nnc12,–,"inconclusive: 16.5 µM [inhibitor, single point]"
O=c1c2ccccc2nc(/C=C/c2ccc(O)cc2)n1-c1ccccc1O,–,"inconclusive: 0.657 µM [inhibitor, full curve]"

# (list continues)

SMILES,"activity change, negative = inhibition",Potency
O=C1CC(c2ccccc2)CC(O)=C1C=NCCN1CCN(Cc2ccccc2)CC1 (centres undefined),inactive: -12.9%,–
Cc1sc2ncnc(NCC(O)c3ccc([N+](=O)[O-])cc3)c2c1C (centres undefined),–,"inconclusive: 18.5 µM [inhibitor, single point]"
COc1cc(S(=O)(=O)Nc2ccccc2C)ccc1Cl,–,"inconclusive: 13.1 µM [inhibitor, partial curve, poor fit]"
CCn1cc(C(=O)NCCCOC(C)C)c(=O)c2cc(S(=O)(=O)N3CCC(C)CC3)ccc21,–,active: 1.04 µM
CCOc1ccc(CCNC(=O)C2CCN(C(=O)N(C)C)CC2)cc1OCC,–,"inconclusive: 4.15 µM [inhibitor, partial curve, poor fit]"
CCOCCCN(C(=O)CCC(=O)Nc1cc(C)on1)C(C(=O)NC(C)(C)C)c1ccccc1Cl (centres undefined),–,"inconclusive: 11.7 µM [inhibitor, partial curve]"
CCCN(CCC)Cc1c(C(=O)N/N=C/C(C)=C\c2ccco2)nnn1-c1nonc1N,–,"inconclusive: 18.5 µM [inhibitor, single point]"
O=C(Cn1nc2n(c1=O)-c1ccccc1SC2)N/N=C/c1cccnc1,–,"inconclusive: 18.5 µM [inhibitor, partial curve, poor fit]"
CCCCC(=O)NC(=S)Nc1cccc(NC(=O)CC)c1,inactive: 36.6%,–
N#CC1=C2SCCN2C(=O)C(C#N)C12CCCCC2 (centres undefined),–,active: 2.08 µM
Cc1ccccc1CNc1nc(N)n(-c2ccccc2)n1,inactive: 0.352%,–
CSC(=NC#N)N1CCN(c2cccc(Cl)c2)CC1,inactive: -15.3%,–
CCCC(=O)Nc1c2c(nn1-c1ccccc1)CSC2,inactive: 21.2%,–
c1ccc(COc2ccccc2CNC23CC4CC(CC(C4)C2)C3)cc1,–,"inconclusive: 14.7 µM [inhibitor, single point]"
CCC(C)NC(=O)c1ccc(C(=O)c2ccccc2)cc1 (centres undefined),inactive: -16.4%,–
CCOC(=O)c1c(-c2ccc(F)cc2)cn2ccccc12,–,"inconclusive: 0.131 µM [inhibitor, full curve]"
CCC(=O)N1N=C(c2c(O)n(C)c(=O)n(C)c2=O)CC1c1ccccc1 (centres undefined),–,"inconclusive: 2.08 µM [inhibitor, full curve, poor fit]"
COC(=O)c1ccc(C2/C(=C(\O)c3ccc(OC)c(C)c3)C(=O)C(=O)N2c2cc(C)on2)cc1 (centres undefined),inactive: 0.261%,–
Nc1nnc(SCC(=O)Nc2cc(S(=O)(=O)N3CCOCC3)ccc2Cl)s1,–,"inconclusive: 5.86 µM [inhibitor, partial curve]"
COC(=O)CSc1nccc(C)n1,inactive: 49.9%,–
Cc1ccc2c(=O)c(CN3CCCCCC3)c(C)[nH]c2c1C,–,"inconclusive: 18.5 µM [inhibitor, single point]"
O=C(O)c1ccc(CS(=O)c2cccc(C(F)(F)F)c2)o1 (centres undefined),–,"inconclusive: 3.29 µM [inhibitor, full curve, poor fit]"
CC(=O)O[C@H]1CC[C@]2(C)[C@H]3CC=C4[C@@H]5[C@@H](C)[C@H](C)CC[C@]5(C(=O)O)CC[C@@]4(C)[C@]3(C)CC[C@H]2C1(C)C,–,"inconclusive: 18.5 µM [inhibitor, single point]"
Cc1ccc(CNC(=O)COc2ccc(S(=O)(=O)N3CCOCC3)cc2)cc1,–,"inconclusive: 13.1 µM [inhibitor, partial curve, poor fit]"
C=CCc1ccc(OCCOc2cccc3cccnc23)c(OC)c1,inactive: -25.7%,–

SMILES,"activity change, negative = inhibition",Potency
COc1ccc(-c2noc(C3CCCN(C(=O)Nc4ccccc4)C3)n2)cc1 (centres undefined),inactive: 3.27%,–
Cc1cccc(NC(=O)CSc2nnc(C)c(=O)n2N)c1,inactive: 35.2%,–
CCn1cc(CN2CCCC(CNC(=O)COc3ccccc3OC)C2)c(C)n1 (centres undefined),–,"inconclusive: 18.5 µM [inhibitor, single point]"
Cc1cc(NC(=O)CSCC(=O)Nc2cc(Cl)ccc2N2CCN(C)CC2)no1,–,"inconclusive: 18.5 µM [inhibitor, single point]"
c1ccc2nc3c(cc2c1)CCCCC3,inactive: -20.6%,–
COc1cccc(NC(=O)C2C(c3ccccc3)C2(Cl)Cl)c1 (centres undefined),–,"inconclusive: 18.5 µM [inhibitor, single point]"
CN(Cc1cnccn1)Cc1nc(Cc2ccccc2F)no1,–,"inconclusive: 18.5 µM [inhibitor, single point]"
Cc1cccnc1NC(=O)CSc1ccc2c(c1)OCCO2,inactive: 41%,–
CCOC(=O)CS(=O)(=O)c1ccc(O)cc1,–,"inconclusive: 3.29 µM [inhibitor, single point]"
Cc1ccccc1OCCC(=O)Nc1ccc(N2CCOCC2)cc1N1CCOCC1,inactive: -6.59%,–
CCC(=O)NC1=C(NC(C)c2ccccc2)C(=O)c2ccccc2C1=O (centres undefined),–,active: 0.928 µM
O=C(c1ccc(Cl)cc1)C1CCCN(Cc2cnn(-c3ccccc3)c2)C1 (centres undefined),inactive: 28.7%,–
COc1cccc(CNC(=O)CN(c2cc(C)cc(C)c2)S(=O)(=O)c2c(C)noc2C)c1,–,"inconclusive: 5.86 µM [inhibitor, partial curve]"
CC1Sc2ccc(S(=O)(=O)CCC(=O)NC(C)c3ccccc3)cc2NC1=O (centres undefined),inactive: 2.54%,–
COC(=O)c1[nH]c2cccc(OC)c2c1NC(=O)CCN1CCC(C)CC1,–,active: 1.85 µM
O=[N+]([O-])c1cccc(C(=S)N2CCCC2)c1,–,"inconclusive: 9.28 µM [inhibitor, single point]"
CN(CCCNC(=O)CCC(=O)N1CCOc2ccccc21)Cc1ccccc1,inactive: -10.1%,–
CC(C)(C)c1ccc(NC(=O)COC(=O)c2ccc3ncsc3c2)cc1,inactive: -65.9%,–
CCCNS(=O)(=O)c1ccc(NC(=O)c2ccccn2)cc1,–,active: 10.4 µM
O=C(O)CSc1nnc2c(n1)[nH]c1ccccc12,inactive: 42.6%,–
COc1ccccc1CNC(=O)c1ccc(N(C)S(=O)(=O)c2ccc(C)cc2)cc1,–,"inconclusive: 10.4 µM [inhibitor, single point]"
COc1cc(C(=O)NC2CCCc3c2cnn3-c2ccccc2F)cc(OC)c1OC (centres undefined),–,active: 3.29 µM
Cc1ccc(-c2cc(C(=O)N3N=C(C(F)F)CC3(O)C(F)F)c3ccccc3n2)cc1C (centres undefined),–,"inconclusive: 18.5 µM [inhibitor, partial curve, poor fit]"
Cc1cc(C)nc(NS(=O)(=O)c2ccc(N=NN(C)C)cc2)n1,inactive: 28.9%,–
